Measured values: the RNAGym collection of RNA variant scans (doi:10.1126/science.aae0568)
Variants at the floor of the assay are shown more often than the library holds them.

B1: tRNA (parent)
chain: GUUCCGUUGGCGUAAUGGUAACGCGUCUCCCUCCUAAGGAGAAGACUGCGGGUUCGAGUCCCGUACGGAACG

Variants of: B1
Assay: yeast fitness relative to wild type (ratio to wild type); higher = fitter; tRNA-Arg(CCU), competitive growth, 37 C, YPD
How it was run: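 Genotype frequency changes were the basis for Darwinian fitness relative to wild type. The frequencies came from 100-nucleotide paired-end sequencing of gene amplicons from the start population and each end population of pooled yeast strains with tRNA-Arg(CCU) gene variants at the native locus. Competition ran in YPD at 37°C for 24 hours in six replicates, genotypes needed ≥ 100 starting reads, and estimates < 0.5 were set to 0.5.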

C27G C49U C66G and A21G C24A G39A C66U cannot be ordered by yeast fitness: at most 0.5 for the first, at most 0.5 for the second.

A21G C22A C49A G56C and C5U C22A A40C A45G U54A cannot be ordered by yeast fitness: at most 0.5 for the first, at most 0.5 for the second.

First: U19G C62U
Second: G9A C30U
The yeast fitness of the first is lower: 0.857 for the first, 0.888 for the second.

Going from C11G C29A C31G to G39A G52A, the yeast fitness rises from at most 0.5 to 0.759.

First: A15U A57C A65U
Second: C5G G38C G41C A65G
The yeast fitness of the first is higher: 0.794 for the first, at most 0.5 for the second.

C34U G50C C61U C62G and G12A C30U A45C cannot be ordered by yeast fitness: at most 0.5 for the first, at most 0.5 for the second.

U26G C30U U59G U64G G68A and G9A G12C C31A C33G A43C A69U A70C cannot be ordered by yeast fitness: at most 0.5 for the first, at most 0.5 for the second.

C4G A15G G17C C34A G50A and G10A C11G C30G A57G G58A U59A cannot be ordered by yeast fitness: at most 0.5 for the first, at most 0.5 for the second.

Going from C5U G9A A43C C46U G56C to A15C U16C A37C G50A U53A C61U, the yeast fitness rises from at most 0.5 to 0.58.

G17A U32A U35C G67C and C11G A20G A37C A42U cannot be ordered by yeast fitness: at most 0.5 for the first, at most 0.5 for the second.

First: A45U G48C
Second: U13G C22U C31A C49A G67C
The yeast fitness of the first is higher: 0.857 for the first, at most 0.5 for the second.

U35A A40U A42U and U2G C30U U32C A40G A70G cannot be ordered by yeast fitness: at most 0.5 for the first, at most 0.5 for the second.

Compared with A36U A65G C66G G68A, C22G C27G C31G C49U C61G A69U is higher in yeast fitness: at most 0.5 for the first, 0.534 for the second.

G6C C11G A14U C22U G44A C55A G67A and A15G C29U A36U cannot be ordered by yeast fitness: at most 0.5 for the first, at most 0.5 for the second.

U7A G17A C24U C34A A40G C49G and C11G C66G cannot be ordered by yeast fitness: at most 0.5 for the first, at most 0.5 for the second.

Going from G9A A20G U59A C66G to A45U C55G, the yeast fitness rises from at most 0.5 to 0.528.

C24U U26C C55G and U3C G10A U13C C46U U47A U54C cannot be ordered by yeast fitness: at most 0.5 for the first, at most 0.5 for the second.

C4G A14U C60A U64C and C31A A45C U47C C62U G63A U64A cannot be ordered by yeast fitness: at most 0.5 for the first, at most 0.5 for the second.

C4G A40U C49A C55U G68A and C24U C34A G39A U54A cannot be ordered by yeast fitness: at most 0.5 for the first, at most 0.5 for the second.

U7C C55U C60G and C27G U47C G48A G50A A57G C60G cannot be ordered by yeast fitness: at most 0.5 for the first, at most 0.5 for the second.

A20C C30G C62A and A14U C24U C33A G44C U47C A70C cannot be ordered by yeast fitness: at most 0.5 for the first, at most 0.5 for the second.

Compared with C5A C11A, C34G G52C A70U is lower in yeast fitness: 0.592 for the first, 0.542 for the second.

U3C U16A G23C C29U G58A and C4U U16C U32A G58A C60U cannot be ordered by yeast fitness: at most 0.5 for the first, at most 0.5 for the second.

A14G G25A G38C and C27A U32A C61G U64C cannot be ordered by yeast fitness: at most 0.5 for the first, at most 0.5 for the second.

C34A A43C G50A A65C and U3A G6A C34U C49A G52A cannot be ordered by yeast fitness: at most 0.5 for the first, at most 0.5 for the second.

C4G G17A G50A C55U G67C and G9A U16C U19G C27A C33U U53C cannot be ordered by yeast fitness: at most 0.5 for the first, at most 0.5 for the second.

C5U A14U C33G A69C and C33U A43U C49G G50C A65C cannot be ordered by yeast fitness: at most 0.5 for the first, at most 0.5 for the second.

G9C C11U C24G C31U C34U C49U A69C and C31G U32C G48C G50A A65U cannot be ordered by yeast fitness: at most 0.5 for the first, at most 0.5 for the second.

Compared with C4A A36C G68C, U13A U59A is higher in yeast fitness: at most 0.5 for the first, 0.827 for the second.

A15C C29A C33G A45C and G6A A20U C62A G67A A69G cannot be ordered by yeast fitness: at most 0.5 for the first, at most 0.5 for the second.

A15G U26G C30U C55U G67C and U32C A43G C55U C66A cannot be ordered by yeast fitness: at most 0.5 for the first, at most 0.5 for the second.

A36C A37C U53G A69C and G9C A20C C49U G51A A65U cannot be ordered by yeast fitness: at most 0.5 for the first, at most 0.5 for the second.

G41C G44A A57U and C5G U7G C33G A70U cannot be ordered by yeast fitness: at most 0.5 for the first, at most 0.5 for the second.

First: C22A G25A
Second: C31U G44A A45U
The yeast fitness of the first is higher: 0.992 for the first, 0.893 for the second.

C5G A20G C60A A70C and U7C U26A A57C G67A A69U cannot be ordered by yeast fitness: at most 0.5 for the first, at most 0.5 for the second.

G10A G51C C60U G67A and C30G C31G A65C cannot be ordered by yeast fitness: at most 0.5 for the first, at most 0.5 for the second.

C4A C5U C27U A37G and C4G A21G G63C cannot be ordered by yeast fitness: at most 0.5 for the first, at most 0.5 for the second.

Compared with G12C C22G C55U, G18A G58A A70U is lower in yeast fitness: 0.581 for the first, at most 0.5 for the second.

C5G A21C C60G C62A A65G and C30U A42G A45C cannot be ordered by yeast fitness: at most 0.5 for the first, at most 0.5 for the second.

Compared with U8C U16G G25A G68A, U28C G67C is higher in yeast fitness: at most 0.5 for the first, 0.845 for the second.

First: C22U C34U
Second: G6A C11G A21G C27G C29U C61U
The yeast fitness of the first is higher: 0.665 for the first, at most 0.5 for the second.

Going from C30U C46A C66U to A15U G38C G39A A43C C60G A65C, the yeast fitness falls from 0.83 to 0.559.

C4A G6A G25A C29G A57G and A21U U35A C61U cannot be ordered by yeast fitness: at most 0.5 for the first, at most 0.5 for the second.

G18C A57C G67A A69U and C11G A15C C34U A65C cannot be ordered by yeast fitness: at most 0.5 for the first, at most 0.5 for the second.

First: C4U C11G C29A U54A G58A A70U
Second: G9A A45C C49U
The yeast fitness of the first is lower: at most 0.5 for the first, 0.643 for the second.

A14U C24U A40C and G6C U8C C27U G48A A57G cannot be ordered by yeast fitness: at most 0.5 for the first, at most 0.5 for the second.

C4G G18C C55G and G17A A20G G25C C34U C46G G63A A65C A70G cannot be ordered by yeast fitness: at most 0.5 for the first, at most 0.5 for the second.

U8G C33A G48C G52C and C11A U13A A42U A43G C55A cannot be ordered by yeast fitness: at most 0.5 for the first, at most 0.5 for the second.

First: U3C A21G U28A U47G
Second: C33G U35C
The yeast fitness of the first is lower: at most 0.5 for the first, 0.603 for the second.

First: C22G A45U G48C C55U A57C G67U
Second: C31U A43C A69C
The yeast fitness of the first is lower: at most 0.5 for the first, 0.902 for the second.

G9C G18C C49G G63A A65U and C4A U32C A40U C62G C66G cannot be ordered by yeast fitness: at most 0.5 for the first, at most 0.5 for the second.

First: A20G G23C U26A G38C A70C
Second: C29U G41C C49A
The yeast fitness of the first is lower: at most 0.5 for the first, 0.62 for the second.

U8A C22G G25A C27A C33U and A15U C22G C31U U32C A57C U64A G68A cannot be ordered by yeast fitness: at most 0.5 for the first, at most 0.5 for the second.

C30U A42U A43C A70C and C4G C24G A65C cannot be ordered by yeast fitness: at most 0.5 for the first, at most 0.5 for the second.

Going from U13A C30A C31U A43C to U7C G9C G51C, the yeast fitness falls from 0.942 to at most 0.5.

Compared with C5A A20C A57U C60A G68C, G39A G67A is higher in yeast fitness: at most 0.5 for the first, 0.769 for the second.

G6A C11A C31U U59A G63A and C22G A45C U47G U59A cannot be ordered by yeast fitness: at most 0.5 for the first, at most 0.5 for the second.

U2C C4U G25C C29U G68A and C5A C24G G25A G48A cannot be ordered by yeast fitness: at most 0.5 for the first, at most 0.5 for the second.

Compared with G6C U7C G48A, C49G A57C G58C U64A is lower in yeast fitness: 0.614 for the first, at most 0.5 for the second.

G9U G25C A43G C61U and A15U A45G C49G cannot be ordered by yeast fitness: at most 0.5 for the first, at most 0.5 for the second.

Going from C24U C30A A37G to C11A G67U, the yeast fitness falls from 0.593 to 0.584.

First: U16G A37U C49U G52C G67C A70U
Second: A20U C24U
The yeast fitness of the first is lower: at most 0.5 for the first, 0.841 for the second.

First: C5U C66A
Second: G6A U13G A45C C49U
The yeast fitness of the first is higher: 0.729 for the first, at most 0.5 for the second.

U2G G9C G12A A42C C46A A65C and C22A C33G A43C G56C A69U cannot be ordered by yeast fitness: at most 0.5 for the first, at most 0.5 for the second.

C4A C5U U16C G17A and G52C C66U A70C cannot be ordered by yeast fitness: at most 0.5 for the first, at most 0.5 for the second.

C11U C30A C55G A57C and C5U C11U C29U C30G A70C cannot be ordered by yeast fitness: at most 0.5 for the first, at most 0.5 for the second.

A14C U16A U26C and A14U A21G C46G A57U C66U cannot be ordered by yeast fitness: at most 0.5 for the first, at most 0.5 for the second.

C5U A15G G17C and G10A C30G C61U cannot be ordered by yeast fitness: at most 0.5 for the first, at most 0.5 for the second.

C30G C49G A69U and A20G C22G A45C C46G A57U A65G cannot be ordered by yeast fitness: at most 0.5 for the first, at most 0.5 for the second.

First: C5G C30A A40G
Second: U3A A43U
The yeast fitness of the first is lower: at most 0.5 for the first, 0.929 for the second.

A21C C24G U32A A42C C66A and A14G C24G G44C G58C G68U cannot be ordered by yeast fitness: at most 0.5 for the first, at most 0.5 for the second.

Going from A14C A20G C27G to G12A G51C, the yeast fitness rises from at most 0.5 to 0.662.

C31G C55U A69U and U3C U8A A15C cannot be ordered by yeast fitness: at most 0.5 for the first, at most 0.5 for the second.

C24A A42U U59A and G18A A43C C61G cannot be ordered by yeast fitness: at most 0.5 for the first, at most 0.5 for the second.

Going from C11G C27U A36U G48C C49U to A15G C33A C61U, the yeast fitness falls from 0.717 to at most 0.5.

Going from U26A A65C to G10C C27G U47A, the yeast fitness falls from 0.946 to at most 0.5.

U3G G18A C30G G41U C49G A65U G67A and C33A C60A U64C cannot be ordered by yeast fitness: at most 0.5 for the first, at most 0.5 for the second.

U2G U13G U16C C55G A69C and A20C A36C G50C U64G cannot be ordered by yeast fitness: at most 0.5 for the first, at most 0.5 for the second.

Going from U2G G56A to G48C G56A C61A, the yeast fitness falls from 0.896 to at most 0.5.

Going from C31G C46A G63C to C33G U47A, the yeast fitness rises from at most 0.5 to 0.579.

C27G A45C C55G G58C and A14G C24G G52A cannot be ordered by yeast fitness: at most 0.5 for the first, at most 0.5 for the second.

C24G C29U U35C and C5G C11G A15C A45U C49U C61G A70C cannot be ordered by yeast fitness: at most 0.5 for the first, at most 0.5 for the second.

C34A A42U G48C C61G and A20C U28G C55G cannot be ordered by yeast fitness: at most 0.5 for the first, at most 0.5 for the second.

Work on C27G C30A C34G A45G C62U A69G yielded a yeast fitness of at most 0.5.
